Data reported in the supplement of paper PMC12889115.
This is one part of the list. These are raw signals, not scaled to a control.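 In the initial screen, polymyxin B was used at a concentration that permeabilizes Salmonella's outer membrane but not its inner membrane. Maximum growth was set by DMSO wells with or without polymyxin B. Since plates varied, data were ranked per plate, and compounds giving the lowest OD600 advanced as hits.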

Test system: Salmonella enterica serovar Typhimurium SL1344
Test: bacterial growth OD600 after 18 h with compound and polymyxin B; higher = more bacterial growth (less inhibition)
Conditions: 50 µM, Mueller-Hinton broth

SMILES	bacterial growth OD600 (polymyxin B 0.75 µg/mL)	bacterial growth OD600 (polymyxin B 1 µg/mL)
COCCN1CCN(C(=O)CC2(c3ccccc3C)CC(=O)N(Cc3cccnc3)C2=O)CC1 (stereo unspecified)	0.806	
CCN(CC1CCCN(CCc2cccc(OC)c2)C1)C(=O)c1ccnn1C (stereo unspecified)		0.79
CCC1CCCCN1C(=O)c1cc(COc2ccc3ncccc3c2)on1 (stereo unspecified)	0.519	
Cc1nc(N2CCCC2C(=O)N[C@@H](C)c2ccccc2)nc2ccccc12 (stereo partly specified)	0.007	
Cc1ccc(OCc2cc(C(=O)N(C)Cc3nc4ccccc4[nH]3)no2)cn1		0.911
COc1ccc(CN2C[C@@H]3C[C@@H](c4ccccc4OC)N4CCC[C@@]34C2=O)cc1	0.761	
Cc1nc(N2CCCC(C(=O)NCC(C)(C)CO)C2)nc2cc(S(C)(=O)=O)ccc12 (stereo unspecified)	0.815	
O=C(c1ccc(N2CCCCC2)cc1)N(Cc1ccncc1)Cc1ccc(OCc2cccc(F)c2)cc1	0.037	
Cc1ccc(CN2CCC(CN(C)Cc3ccc(OC(F)F)cc3)CC2)o1		0.915
CC(=O)NCC(=O)NC1CC(=O)N(CCc2cccc(Cl)c2)C1 (stereo unspecified)		0.833
CN(Cc1ccncn1)C(=O)CC(c1ccccc1)c1ccccc1Cl (stereo unspecified)		1.18
CC(=O)NCCNC(=O)C1(N(C)Cc2ccccc2)Cc2ccccc2C1	0.623	
CCNC(=O)c1cn(CC(C)C)cc(C(=O)NCc2ccccc2C)c1=O	0.705	
CN(C)C(=O)CCC(=O)N1CCCC(CCc2ccc(F)cc2F)C1 (stereo unspecified)	0.627	
COCCNC(=O)CCc1nnc(Cc2ccc(-c3ccccc3)cc2)o1		0.827
Cc1ccccc1C1(CC(=O)N2CCN(CC(=O)N(C)C)CC2)CC(=O)N(Cc2ccccc2)C1=O (stereo unspecified)	0.75	

SMILES	bacterial growth OD600 (polymyxin B 0.75 µg/mL)	bacterial growth OD600 (polymyxin B 1 µg/mL)
CCc1ccc(CN2CCC(n3nccc3NC(=O)c3ccc4c(c3)OCO4)CC2)o1	0.816	
O=C(c1ccc(F)c(Cl)c1)N1CCC2(CCCN(CC3CC3)C2)C1 (stereo unspecified)		0.943
COc1cccc(CCNC2CCN(c3ccc(C(=O)NC4CCCC4)cc3)CC2)c1	0.784	
COc1cc(C(=O)N2CCCC(Nc3ccc(C(C)C)cc3)C2)cc(OC)c1OC (stereo unspecified)		0.592
Cc1nnc2ccc(SCC(=O)NC(c3ccccc3)c3ccc(Cl)cc3)nn12 (stereo unspecified)	0.787	
O=C(NCc1cccnc1N1CCOCC1)c1ncoc1C1CC1		1
O=C(Nc1ccc(-c2ccn[nH]2)cc1)C1CCCN(Cc2ccc3c(c2)CCO3)C1 (stereo unspecified)	0.835	
CN(C)c1ccc(C(=O)N2CCCN(c3ncccn3)CC2)cn1		1.14
CCS(=O)(=O)Nc1cc(C(=O)N(C)C(C)c2cccs2)c2c(c1)nc(-c1ccccc1)n2C (stereo unspecified)	0.006	
Cc1ccccc1C(=O)NC1CC(=O)N(CC2CCCCC2)C1 (stereo unspecified)		0.882
COC(=O)c1ccccc1C(=O)N1CCCC(Nc2ccc(C)c(C)c2)C1 (stereo unspecified)		0.736
Cc1ccc(CN2CCN(CC3CCCCC3)C(CCO)C2)o1 (stereo unspecified)		0.77
CN(CCCN1CCOCC1)C(=O)c1cc(COc2ccc(F)c(F)c2)on1	0.789	
COc1ccc(CC(=O)N(C)CC2CCCN(CCc3ccccc3OC)C2)cc1 (stereo unspecified)	0.81	
CC1=C(C(=O)NC2CC(=O)N(Cc3cccc4ccccc34)C2)OCCO1 (stereo unspecified)		0.902

Look-ups from the list:
bacterial growth OD600 (polymyxin B 1 µg/mL) with `Cc1ccc(CN2CCN(CC3CCCCC3)C(CCO)C2)o1` (stereo unspecified) is entered as 0.77
bacterial growth OD600 (polymyxin B 0.75 µg/mL) with `Cc1nnc2ccc(SCC(=O)NC(c3ccccc3)c3ccc(Cl)cc3)nn12` (stereo unspecified) is entered as 0.787
